Assay results published in patent US20250082774A1, “PEPTIDE LINKERS COMPRISING TWO OR MORE PAYLOADS” (ARARIS BIOTECH AG, priority 2022, published 2025).

Columns and labels:
Format in all cases: biochemical
[1] = system: native, glycosylated Trastuzumab antibody; assay: MTG conjugation of Exatecan linker-payloads to Trastuzumab (Example 3); details: MTG 10 U/mg, 7.5-12.5 molar equivalents, BisTris pH 6.6, 24 hours 37° C.; LCMS or RPLC
[2] = system: native, fully glycosylated Polatuzumab; assay: MTG conjugation of MMAE linker-payloads to Polatuzumab (Example 2); details: MTG 6-7.5 U/mg, 5 molar equivalents, Tris 50 mM pH 7.6, 24 hours 37° C.; LCMS
[3] = system: native, fully glycosylated Trastuzumab antibody; assay: MTG conjugation of MMAE linker-payloads to Trastuzumab (Example 1); details: MTG 5 U/mg, 5 molar equivalents linker-payload, Tris 50 mM pH 7.6, 24 hours 37° C.; LCMS
[4] = system: native, fully glycosylated Enfortumab; assay: MTG conjugation of MMAE linker-payloads to Enfortumab (Example 2); details: MTG 6-7.5 U/mg, 5 molar equivalents, Tris 50 mM pH 7.6, 24 hours 37° C.; LCMS
[5] = system: native, glycosylated Trastuzumab antibody; assay: MTG conjugation to Trastuzumab, BisTris pH 7.5, 22 h (Examples 6 to 9); details: MTG 8 U/mg, 5 molar equivalents, BisTris 50 mM pH 7.5, 22 hours 37° C., LCMS
[6] = system: native, glycosylated Trastuzumab antibody; assay: MTG conjugation to Trastuzumab at varying linker-payload molar equivalents (Example 10); details: 3.5 mg/ml antibody, MTG 5 U/mg, Tris 50 mM pH 7.6, 24 hours 37° C.
[7] = 2 molar equivalents vs Trastuzumab
[8] = 5 molar equivalents vs Trastuzumab
[9] = 10 molar equivalents vs Trastuzumab
[10] = 20 molar equivalents vs Trastuzumab
[11] = 40 molar equivalents vs Trastuzumab
[12] = 80 molar equivalents vs Trastuzumab

Substance: RKAASGSG-PABC-(Exa)2: peptide linker with two Exatecan payloads; structure in FIG. 9 (N-acetyl; PABC, two Exatecan payloads)
- Conjugation efficiency (%) to Trastuzumab [1]: 92%

Substance: RKAA-PABC-PABC-(MMAE)2: peptide linker (SEQ ID NO: 1) with two MMAE payloads; structure in FIG. 2 (acetyl, PABC-PABC, two MMAE payloads; Linker Sequence 1)
- Conjugation efficiency (%) to Polatuzumab [2]: 89%
- Conjugation efficiency (%) to Trastuzumab [3]: 90%
- Conjugation efficiency (%) to Enfortumab [4]: 92%

Substance: MMAE-PABC-AA-C2-RKAA-PABC-MMAE: peptide linker with MMAE at N- and C-terminal end; structure in FIG. 3 (MMAE-PABC at both termini; Linker Sequence 1)
- Conjugation efficiency (%) to Polatuzumab [2]: 96%
- Conjugation efficiency (%) to Trastuzumab [3]: 95%
- Conjugation efficiency (%) to Enfortumab [4]: 96%

Substance: RKAA-PABC-(MMAE)2: peptide linker (SEQ ID NO: 1) with two MMAE payloads; structure in FIG. 1 (acetyl, PABC, two MMAE payloads; Linker Sequence 1)
- Conjugation efficiency (%) to Trastuzumab ([5]; Example 9, peptide vs amino-PEG linker, DAR 4): 95%
- CE (%) [6, 7]: 69%
- CE (%) [6, 8]: 97%
- CE (%) [6, 9]: 100%
- CE (%) [6, 10]: 99%
- CE (%) [6, 11]: 91%
- CE (%) [6, 12]: 68%
- Conjugation efficiency (%) to Polatuzumab [2]: 91%
- Conjugation efficiency (%) to Trastuzumab [3]: 90%
- Conjugation efficiency (%) to Enfortumab [4]: 90%

Substance: RKN(PABC-MMAE)A-PABC-MMAE: peptide linker (SEQ ID NO: 83) with two MMAE payloads; structure in FIG. 43 (RKNA; PABC, two MMAE payloads; Linker sequence 31)
- CE (%) [6, 7]: 50%
- CE (%) [6, 8]: 82%
- CE (%) [6, 9]: 84%
- CE (%) [6, 10]: 56%
- CE (%) [6, 11]: 19%
- CE (%) [6, 12]: 2%

Substance: Exa-PABC-AA-C2-RKAA-PABC-Exa: peptide linker with Exatecan at N- and C-terminal end; structure in FIG. 14 (Exatecan-PABC at both termini; Linker Sequence 1)
- Conjugation efficiency (%) to Trastuzumab [1]: 88%

Substance: E(A-PABC-MMAE)-ARKAA-PABC-(MMAE)2: peptide linker (SEQ ID NO: 11) with three MMAE payloads; structure in FIG. 19 (EARKAA; acetyl, PABC, three MMAE payloads; Linker Sequence 11)
- Conjugation efficiency (%) to rastuzumab ([5]; DAR 6 or DAR 8 ADCs): 99%

Substance: RKAAAAAA PABC-(Exa)2: peptide linker with two Exatecan payloads; structure in FIG. 8 (PABC, two Exatecan payloads)
- Conjugation efficiency (%) to Trastuzumab [1]: 95%
